Consider 67 sequences from PubChem BioAssay AID1347423 (Functional Genomics Laboratory (NCATS/FGL), 2020).

Out of some 52,000 sequences screened, about 210 (0.4%) were called active.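 How the source made its calls: active means gene whose silencing raises cell survival under the drug, median off-target-corrected z-score across its silencing RNAs 2 or more; inactive means the rest.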 Some of the results follow.

A short description of this test: Resistance to Poly (ADP-Ribose) Polymerase inhibitor: Gene Identification via Genome-wide siRNA Screen. To be noted: mouse BRCA2 R2336H ES cells, olaparib, CellTiter-Glo viability; active compounds read high. Put shortly:
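Mouse BRCA2 R2336H ES cells were reverse-transfected with siRNA (20 nM final), treated at 48 h with 500 nM olaparib, and read by CellTiter-Glo after 72 h. Scores: MAD-based z per siRNA, median per gene, seed off-target correction.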
A general note: ATP-based viability assays read luminescence as a measure of living cells.
For the sequence CAUGUCAUGCACAAUAGUUTT against Cd200r4, the z-score was inactive: -0.0561. Under GGCUUUCACGCUUUGACAATT against Ap1m2 stands inactive: 0.615; under GGGAUUGGAAGAGAAAUGGTT against Hsd11b1, inactive: 0.0967; under GCGAAUGUGUGUAUUCUGGTT against MGC65590, inactive: -1.5. Turning to GGGUAACUAACAUUAAUGGTT against Adam12, the z-score was inactive: 1.73.

CCUUCAUGUCUGCAUAUUUTT against Cth: the z-score is inactive: -0.394. Under GGUUCUGCCCUAUUUGUCATT against Aes stands inactive: 0.816; under GCUAAGAAAGUACAAACCATT against Tmpo, inactive: -1.97. With GGAAAGCUUGAAUGUUGAGTT against Mup3, the z-score is inactive: -1.25. Under “GGCCUUUUUACCUGUGCACTT against 2010319C14Rik” stands inactive: -0.996; under “GGAGAGUGCAGUGAUUGCCTT against 8030451F13Rik”, inactive: -0.7.

Consider CCCUACCUUGAACGAGUACTT against Apoa1, for which the z-score was active: 0.773.

As to GGCUGUUGAGUAUAUAUAUTT against Slc6a8, the z-score was inactive: -0.543.

In the case of GCACACCAGAACUGCAGCUTT against Olfr967, the z-score was inactive: 2.06. Under “GGUAAUACCACCUCACCUUTT against B230312A22Rik” stands inactive: -0.73; under GGCAUCUUCAUCAAGGAUUTT against Sf3a1, inactive: -3.02; under CGUAGCUGUAAUUCUUCAGTT against Pcdhgb2, inactive: -0.24. Consider GGGCUCUUAUGUGAACUUUTT against Lman2, for which the z-score is inactive: -0.285. For GUCUGAGAGGAUUGAAACUTT against Manbal, the z-score was inactive: 0.895. Regarding GGACCUCCUGUUUUUAUUCTT against AW555814, the z-score was inactive: 0.833. For the sequence “GCCUUUUUCAGACACUAAUTT against 1300012D20Rik”, the z-score is inactive: 1.61.

Take GCUCUGUAAUAUACUUGUATT against Gtf2i: the z-score is inactive: -1.12.

As for GCUCCUACUACUGCUUUGCTT against Crem, the z-score was inactive: 0.342. Under CGUGAUGGACAGUUUAGACTT against Cenpj stands inactive: -1.17. Under GCCGAGGUAUCCCUUGUUUTT against Sestd1 stands inactive: -1.39; under GCAAACGAGCUAGUUGUAUTT against Olfr1137, inactive: -0.517; under GCAUCGUUUGUGAGAAUUUTT against Perp, inactive: 0.171. With GGCUCUUAGAUACACUUGUTT against Dnajc12, the z-score was inactive: -0.533. Under GGUAAUGUAUUUCAGCUCCTT against Slc6a17 stands inactive: -0.911. Under CCAAGUAAUUCCUACUACUTT against Olfr1100 stands inactive: -2.26. For GGGAAGUUCGAGCCAAUGUTT against Batf, the z-score was inactive: -1.7. Under “GGAAAACCUAAUAAGGUUCTT against 1700028P05Rik” stands inactive: 0.784.

With CCAUAAGUUUGAAGAAUCCTT against Glg1, the z-score was inactive: 0.604. Under GGAGUUGGAGUUUAUAUUATT against Olfr846 stands inactive: -0.114.

For the sequence CCGCUUCUCUAGUGAAUAATT against Uros, the z-score is inactive: -1.84. Turning to “GGCAAUCAAUUGGUAGGUATT against 6530402A20”, the z-score is inactive: -0.368.

With GGUCAUUGUCAAAGUCAAGTT against Nut, the z-score was inactive: 0.288. As for GGUGUAUUUUGUGACUAUCTT against Ugt1a12, the z-score was inactive: 1.53. Under CCCAAAAUGACAUAACAGATT against Pilra stands inactive: -1.09; under “GGACAACAUAGCAAGAUUUTT against C920001D21Rik”, inactive: -0.525. Turning to GGAGCAGUUCCAUAUGUGCTT against Cap1, the z-score was inactive: 1.32. Under CGGUGCUUGCUUCUAUGUGTT against Olfr642 stands inactive: 0.523; under CCACCAUCGUUACGUACCATT against Itm1, inactive: -0.827; under GCCCUAGCUUCGAUCUAUUTT against Tcf4, inactive: 0.332.

With CCUCAAUAAAAUCCUGGUGTT against Olfr99, the z-score is inactive: -2.04. Under GGAAGCCCUAAAAAAGCUGTT against Ciapin1 stands inactive: 0.0247; under CCUUACUAUGGUUGUCCUGTT against Olfr38, inactive: 0.411; under “GCAGAUACGACGAAGAUCUTT against 1110049F12Rik”, inactive: -0.421.

Turning to GCAUCCUAGAGAAACUGUCTT against Unc50, the z-score was inactive: 0.733.

Consider GGAAAGAAACUGCAUCGAGTT against BC050811, for which the z-score is inactive: 0.206. Under GGACCUAAACUGUCAGGAGTT against Eif3s4 stands inactive: -2.67. Take GGUAAGAGGAUGGACACAATT against Chst1: the z-score is inactive: -1.44.

Take “CGAGAACUUCAUCAAUCGCTT against 1700112C13Rik”: the z-score was inactive: 0.448.

Regarding GCAAGUUAACCAGACCCAATT against Mro, the z-score was inactive: -0.466. For GCUACCUUAUCAAGAAUGATT against Snap91, the z-score was inactive: 1.48. Under CGAGAUAAACCUUAGUUCATT against Nudt12 stands inactive: -0.0881. Under GCUAUUUGUCCACAAGUUCTT against Rab2 stands inactive: 0.44. “GGAUCCAGAAAGUCCAGAUTT against C330027I04Rik”: the z-score is inactive: -0.246. Under GGACCAUGCUUCGUAUACATT against Idh3b stands inactive: -0.567; under “GUGAUUUGAGAUAAUCUCCTT against 6330583I20Rik”, inactive: 1.33; under GCAGUAGCAUCCCAUUUGUTT against Ttr, inactive: -1.2. GCUGACGUACCCAGUAUCCTT against Pik3r3: the z-score was inactive: -1.41. Under GGUAUACUGGUUGGAGGACTT against Slc22a8 stands inactive: 0.101; under GGGAUUUCUCGAAUGAAUGTT against Pgm1, inactive: 2.68. Under GUCUACUUUGACCGUGAUGTT against Fthl17 stands inactive: 1.97; under GGUUGUUAAAAAUGUGUCUTT against Ctdspl, inactive: 0.00853; under GGCUGUAGACAUUUUGUCUTT against Sds, inactive: 1.14.
